Laboratory results reported in publication doi:10.1101/2020.11.09.375865.
Results are given in words; binding and its absence hold for the method and conditions named. Binding calls can cover weak binding; strength is not graded here.

B1: SAS-4 (protein, UniProt P34402 1-808)
chain: MASDENIGADGEQKPSRPFLRKGQGTARFRMPRNNKTSAGAPPTSELSSASSPSINVPRFSLSNALPNSARTVDSGISNEDETRPPTTASLPMDQPSLSSSPENRLNPAPSVAEEHGHSGQHAEEEEDNDTDEVSAMPSFVPDEPSTLVNSDHELSDDALKYKNAAAEFKAFERRMDSMRSASTITTSLATPSSCAPSNSSEPPTRSTPIMNDLGVGPNNHNWPSSMQELSGISLETPQARPLGSNRINQLVRSEAQTGISLLQHHERPTVTAPLRRNDMMNSSRQNPQNGNVQDENRPEHVYDQPIHVPGSSLDRQKLEIEIRRHRNLNIQLRDTIAHLDYAEESVHTTKRQLEEKISEVNNFKKELIEEFKKCKKGVEEEFEKKFEKIKEDYDELYEKLKRDQRDLERDQKILKKGTGERNKEFTETIATLRDKLRASETKNAQYRQDIRVRDEKLKKKDEEIEKLQKDGNRLKSTLQTLEKRVKQLRTEKERDDKEKEMFAKVAMNRKTSNPVPPVLNQSVPISITSNGPSRHPSSSSLTTFRKPSTSNRERGVSWADEPNEQSLEAVPQEFLMMPVKEMPGKFGKCTIYRDSLGETSKVTDTIANGLLFEYSNGDLRWVNRQNAVNIYISAVDKTVRIDLPTYNISIIHTFQRQVEVLRPGNNITLISIKRREVRTDLIYQNGMYKTEIFNRDGRYVTKDFSNQEVSRKYNPGTHTYRDNQCRYVLVTDYNDFELVEPEFRLRWYQGDPTGLNNQYILKIIGRPECSEKTLRLEVNLSTCEGTLETAEMIGDKRRKTTLFQWKK
B2: SPD-2 (protein, UniProt P91870 1-824)
chain: MEDDAPMNLCNEQFEEIEDSPIDDNDNESFYNADGDVELEEEEVHETPKNFKNGGRFKTNMTNPKVNDLTTIEEKNEDLRSAASSRSASRPASVMSDKSFSSQFEFQSGGENAIEEYTNQVFADENKADLLFPETSKFMNGASPPKDKHHSWEPSIHHYDKQPPPDIQTNSPVFGNLNHRKNKLIPQARAKPGANDNEIVERDNDENVPTTSDKSAFITSPMNSTNHDEKTSTPKRPTNRKIGQYQGPNFDLSSIYVGSPQHQNTSISTGQQMPTSSYSHAHSETMMTNQTINESMVRRVLNGNNKNQDLFAALEEARKRRAAQPSKPDFRINTTRTRVPIKPTSARHSGNVVSSTSNDNTTAASSKDLTTSRKAMETFRQNASMADATNSNTASMTSILSTISTARTDISRSSRNHGGGFSNTSVSTVIPANNGNVSLSHGRDGRDSVSSVRTMSRASSTSTVYAGSTFSGVSKPLRIHAKRVAFGCVAVGETLRVEVEVENISDRQCLVRASTDSTTPVYQILDNKLTMVDPKKSIKFQVSFSPSSVGRYQVIMSIEVPAQNFIHKIPMWGNGGIAKFVPTSPDLQQTINQSEYAMCTSCAKRISFKISNSAGTRDGFAMIKVFDSAMRQLPDGCVAFFPAPGFIVKKKSDKRVDIRIDSSYIDLHDENNFRTSSSLSTASTTSSFQRRILPGAKFFVHVVWGEETMRTRLRLLEVRTGQHQLIDGHDFTSFQFSDEEVLRAVPVGFPAIKPEDRDLFAASYRSFFINFFTSTTEFRAATSRKKKEICSNDDSTLLETTAFRNQTFVNDVTIVPNTRFSNRK

Target: PCMD-1 (C. elegans) (UniProt O62071)
Assay: two-hybrid

| Binder | binding |
| --- | --- |
| B1 | binds |
| B2 | no binding |
